Test results taken from patent US11065203B2, “Liposomal compositions and uses of same” (Technion Research & Development Foundation Limited, priority 2009, dated 2021).

B1: Q13011 (protein, UniProt Q13011 1-328, looked up)
chain: MAAGIVASRRLRDLLTRRLTGSNYPGLSISLRLTGSSAQEEASGVALGEAPDHSYESLRVTSAQKHVLHVQLNRPNKRNAMNKVFWREMVECFNKISRDADCRAVVISGAGKMFTAGIDLMDMASDILQPKGDDVARISWYLRDIITRYQETFNVIERCPKPVIAAVHGGCIGGGVDLVTACDIRYCAQDAFFQVKEVDVGLAADVGTLQRLPKVIGNQSLVNELAFTARKMMADEALGSGLVSRVFPDKEVMLDAALALAAEISSKSPVAVQSTKVNLLYSRDHSVAESLNYVASWNMSMLQTQDLVKSVQATTENKELKTVTFSKL
modifications: full-length
B2: P51991 (protein, UniProt P51991 1-378, looked up)
chain: MEVKPPPGRPQPDSGRRRRRRGEEGHDPKEPEQLRKLFIGGLSFETTDDSLREHFEKWGTLTDCVVMRDPQTKRSRGFGFVTYSCVEEVDAAMCARPHKVDGRVVEPKRAVSREDSVKPGAHLTVKKIFVGGIKEDTEEYNLRDYFEKYGKIETIEVMEDRQSGKKRGFAFVTFDDHDTVDKIVVQKYHTINGHNCEVKKALSKQEMQSAGSQRGRGGGSGNFMGRGGNFGGGGGNFGRGGNFGGRGGYGGGGGGSRGSYGGGDGGYNGFGGDGGNYGGGPGYSSRGGYGGGGPGYGNQGGGYGGGGGYDGYNEGGNFGGGNYGGGGNYNDFGNYSGQQQSNYGPMKGGSFGGRSSGSPYGGGYGSGGGSGGYGSRRF
modifications: full-length
B3: P00558 (protein, UniProt P00558 1-417, looked up)
chain: MSLSNKLTLDKLDVKGKRVVMRVDFNVPMKNNQITNNQRIKAAVPSIKFCLDNGAKSVVLMSHLGRPDGVPMPDKYSLEPVAVELKSLLGKDVLFLKDCVGPEVEKACANPAAGSVILLENLRFHVEEEGKGKDASGNKVKAEPAKIEAFRASLSKLGDVYVNDAFGTAHRAHSSMVGVNLPQKAGGFLMKKELNYFAKALESPERPFLAILGGAKVADKIQLINNMLDKVNEMIIGGGMAFTFLKVLNNMEIGTSLFDEEGAKIVKDLMSKAEKNGVKITLPVDFVTADKFDENAKTGQATVASGIPAGWMGLDCGPESSKKYAEAVTRAKQIVWNGPVGVFEWEAFARGTKALMDEVVKATSRGCITIIGGGDTATCCAKWNTEDKVSHVSTGGGASLELLEGKVLPGVDALSNI
modifications: full-length
B4: P43304 (protein, UniProt P43304 1-727, looked up)
chain: MAFQKAVKGTILVGGGALATVLGLSQFAHYRRKQMNLAYVKAADCISEPVNREPPSREAQLLTLQNTSEFDILVIGGGATGSGCALDAVTRGLKTALVERDDFSSGTSSRSTKLIHGGVRYLQKAIMKLDIEQYRMVKEALHERANLLEIAPHLSAPLPIMLPVYKWWQLPYYWVGIKLYDLVAGSNCLKSSYVLSKSRALEHFPMLQKDKLVGAIVYYDGQHNDARMNLAIALTAARYGAATANYMEVVSLLKKTDPQTGKVRVSGARCKDVLTGQEFDVRAKCVINATGPFTDSVRKMDDKDAAAICQPSAGVHIVMPGYYSPESMGLLDPATSDGRVIFFLPWQKMTIAGTTDTPTDVTHHPIPSEEDINFILNEVRNYLSCDVEVRRGDVLAAWSGIRPLVTDPKSADTQSISRNHVVDISESGLITIAGGKWTTYRSMAEDTINAAVKTHNLKAGPSRTVGLFLQGGKDWSPTLYIRLVQDYGLESEVAQHLAATYGDKAFEVAKMASVTGKRWPIVGVRLVSEFPYIEAEVKYGIKEYACTAVDMISRRTRLAFLNVQAAEEALPRIVELMGRELNWDDYKKQEQLETARKFLYYEMGYKSRSEQLTDRSEISLLPSDIDRYKKRFHKFDADQKGFITIVDVQRVLESINVQMDENTLHEILNEVDLNKNGQVELNEFLQLMSAIQKGRVSGSRLAILMKTAEENLDRRVPIPVDRSCGGL
modifications: full-length
B5: P04899 (protein, UniProt P04899 1-355, looked up)
chain: MGCTVSAEDKAAAERSKMIDKNLREDGEKAAREVKLLLLGAGESGKSTIVKQMKIIHEDGYSEEECRQYRAVVYSNTIQSIMAIVKAMGNLQIDFADPSRADDARQLFALSCTAEEQGVLPDDLSGVIRRLWADHGVQACFGRSREYQLNDSAAYYLNDLERIAQSDYIPTQQDVLRTRVKTTGIVETHFTFKDLHFKMFDVGGQRSERKKWIHCFEGVTAIIFCVALSAYDLVLAEDEEMNRMHESMKLFDSICNNKWFTDTSIILFLNKKDLFEEKITHSPLTICFPEYTGANKYDEAASYIQSKFEDLNKRKDTKEIYTHFTCATDTKNVQFVFDAVTDVIIKNNLKDCGLF
modifications: full-length
B6: Q9UKM9 (protein, UniProt Q9UKM9 1-306, looked up)
chain: MSLKLQASNVTNKNDPKSINSRVFIGNLNTALVKKSDVETIFSKYGRVAGCSVHKGYAFVQYSNERHARAAVLGENGRVLAGQTLDINMAGEPKPDRPKGLKRAASAIYSGYIFDYDYYRDDFYDRLFDYRGRLSPVPVPRAVPVKRPRVTVPLVRRVKTNVPVKLFARSTAVTTSSAKIKLKSSELQAIKTELTQIKSNIDALLSRLEQIAAEQKANPDGKKKGDGGGAGGGGGGGGSGGGGSGGGGGGGSSRPPAPQENTTSEAGLPQGEARTRDDGDEEGLLTHSEEELEHSQDTDADDGALQ
modifications: full-length
B7: Q15019 (protein, UniProt Q15019 1-361, looked up)
chain: MSKQQPTQFINPETPGYVGFANLPNQVHRKSVKKGFEFTLMVVGESGLGKSTLINSLFLTDLYPERVIPGAAEKIERTVQIEASTVEIEERGVKLRLTVVDTPGYGDAINCRDCFKTIISYIDEQFERYLHDESGLNRRHIIDNRVHCCFYFISPFGHGLKPLDVAFMKAIHNKVNIVPVIAKADTLTLKERERLKKRILDEIEEHNIKIYHLPDAESDEDEDFKEQTRLLKASIPFSVVGSNQLIEAKGKKVRGRLYPWGVVEVENPEHNDFLKLRTMLITHMQDLQEVTQDLHYENFRSERLKRGGRKVENEDMNKDQILLEKEAELRRMQEMIARMQAQMQMQMQGGDGDGGALGHHV
modifications: full-length
B8: O75439 (protein, UniProt O75439 1-489, looked up)
chain: MAAAAARVVLSSAARRRLWGFSESLLIRGAAGRSLYFGENRLRSTQAATQVVLNVPETRVTCLESGLRVASEDSGLSTCTVGLWIDAGSRYENEKNNGTAHFLEHMAFKGTKKRSQLDLELEIENMGAHLNAYTSREQTVYYAKAFSKDLPRAVEILADIIQNSTLGEAEIERERGVILREMQEVETNLQEVVFDYLHATAYQNTALGRTILGPTENIKSISRKDLVDYITTHYKGPRIVLAAAGGVSHDELLDLAKFHFGDSLCTHKGEIPALPPCKFTGSEIRVRDDKMPLAHLAIAVEAVGWAHPDTICLMVANTLIGNWDRSFGGGMNLSSKLAQLTCHGNLCHSFQSFNTSYTDTGLWGLYMVCESSTVADMLHVVQKEWMRLCTSVTESEVARARNLLKTNMLLQLDGSTPICEDIGRQMLCYNRRIPIPELEARIDAVNAETIREVCTKYIYNRSPAIAAVGPIKQLPDFKQIRSNMCWLRD
modifications: full-length

Assay: Proteomics analysis (trypsin digest, LC-MS/MS) of hMSC ghosts and derived CDLs, conditioned or unconditioned by PC3 medium
Set-up: species or system human
Settings: LC-MS/MS peak area per protein; for Ratio of expression Cond. CDLs/Cond. Ghosts: CDLs derived from conditioned hMSCs versus conditioned ghosts; for Ratio of expression Cond Ghosts/Ghosts: hMSC ghosts conditioned by PC3 medium versus unconditioned ghosts

Row | Molecule | Ratio of expression Cond. CDLs/Cond. Ghosts | Ratio of expression Cond Ghosts/Ghosts
1 | B1 | 5% | 100%
2 | B2 | 6% | 100%
3 | B3 | 5% | 100%
4 | B4 | 5% | 100%
5 | B5 | 6% | 100%
6 | B6 | 6% | 100%
7 | B7 | 5% | 100%
8 | B8 | 5% | 100%
